Laboratory results published in PubChem BioAssay AID1347076 (National Center for Advancing Translational Sciences (NCATS), 2019).
Screen size: about 400,000 compounds; about 13,000 (3.2%) were called active. The shares of active, inactive and inconclusive entries below differ from those in the screen. Calls follow the shape of the dose curve; as a rule, active = well fitted cell-killing curve with a large enough effect; inconclusive = small, poorly fitted or top-dose-only effect, or effect the other way; inactive = flat fitted curve, though single readings scatter. Potencies beside an inconclusive call are fits to weak or partial responses and may not hold up.

assay: qHTS assay for MDR1-selective chemotherapeutics: Primary screen using the drug-selected MDR subline cells KB-V1; conditions: KB-V1 MDR cells viability, CellTiter-Glo, 72 h; activity change, negative = cytotoxicity: at 46.1 µM (top of the series); also: nearly all actives have a fitted effect of over 60% in size
How it was run: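 Luminescent ATP read-out (CellTiter-Glo, 10 min) measures survival of drug-selected KB-V1 MDR cells after 72 h, 37 degrees C compound exposure. Medium: phenol-red-free DMEM, 10% FBS. Values from fitted concentration-response curves.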
% is scaled to controls: 0 for no effect and ±100 for the full control effect; potency is read from the fitted curve at half-maximal effect.

SMILES	activity change, negative = cytotoxicity	Potency
Cc1c(CCC(=O)NC2CC2)c(=O)oc2cc(O)ccc12	inactive: 0%	–
Cc1ccc(S(=O)(=O)NCC(=O)OCC(=O)N(CCC#N)c2ccccc2)cc1	inactive: -0.108%	–
Cc1ccc(NC(=O)COc2coc(CN3c4ccccc4CC3C)cc2=O)c(C)c1 (stereo not given)	–	inconclusive: 16.4 µM [cytotoxic, single point]
CCOC(=O)C1=C(CC)OC(N)=C(C#N)C1c1cccs1 (stereo not given)	inactive: 15%	–
Cc1ccc(S(=O)(=O)N2CCC(C(=O)NNC(=O)c3ccccc3O)CC2)cc1	–	inconclusive: 29.1 µM [cytotoxic, single point]
C/C(=N/NC(=O)c1cc(-c2cccc([N+](=O)[O-])c2)n[nH]1)c1cccc(O)c1	inactive: -5.15%	–
CC(C)c1onc(C(=O)NC(C)c2ccccc2)c1[N+](=O)[O-] (stereo not given)	–	inconclusive: 16.4 µM [rising, single point]
COC(=O)c1cc(C(=O)OCC(=O)N2c3ccccc3NC(=O)C2(C)C)cc([N+](=O)[O-])c1	–	inconclusive: 11.6 µM [cytotoxic, partial curve]
Cc1cccc(Nc2ncnc3ccccc23)c1	–	inconclusive: 20.6 µM [cytotoxic, single point]
CCN1CCN(Cc2nc3cc(NC(=O)c4cccc([N+](=O)[O-])c4)ccc3n2CC)CC1	–	inconclusive: 29.1 µM [rising, single point]
Nc1ccc(C(=O)NCC2(c3ccccc3)CCCC2)cc1	–	inconclusive: 13 µM [cytotoxic, partial curve, poor fit]
COc1ccc(C(=O)C(C)OC(=O)c2cccc(S(=O)(=O)Nc3c(C)n(C)n(-c4ccccc4)c3=O)c2)cc1 (stereo not given)	inactive: 0%	–
Cn1ncc(N=Cc2ccccc2[N+](=O)[O-])c1C(N)=O	inconclusive: 31.7%	–
O=C(NNC(=S)NCc1ccccc1)c1cccnc1	–	inconclusive: 0.461 µM [rising, full curve]
Cc1cccnc1Nc1nc(-c2ccccn2)cs1	–	active: 4.11 µM
O=C(O)C1C2C=CC(C2)C1C(=O)NCCCN1CCCC1=O (stereo not given)	–	inconclusive: 29.1 µM [rising, single point]
CCOC(=O)N1CCC(NC(=O)c2ccc3c(c2)N(Cc2ccc(F)cc2)C(=O)c2ccccc2S3=O)CC1 (stereo not given)	–	inconclusive: 25.9 µM [cytotoxic, single point]
Cc1c(C(=O)N2CCCCC2)c(S(=O)(=O)N2CCN(c3ccc(F)cc3)CC2)c(C)n1C	inactive: -21.8%	–
CC(=O)C1=C(O)C(=O)N(c2ccc(O)cc2)C1c1ccccc1 (stereo not given)	–	inconclusive: 13 µM [rising, partial curve, poor fit]
Cc1c(C)n(C)c2ccc(C(=O)NCCCN3CCN(c4ccccc4F)CC3)cc12	inactive: 3.04%	–
CCCCNC(=O)C[C@@H]1C[C@@]2(C(=O)OCC)CCCC=C2N(Cc2ccco2)C1=O	–	inconclusive: 16.4 µM [cytotoxic, partial curve]
Cc1ccc(CCNC(=O)C(C)n2nc(C)c3c(C)n(-c4ccc(C)cc4)nc3c2=O)cc1 (stereo not given)	–	inconclusive: 23.1 µM [cytotoxic, single point]
CCOC(=O)/C(C#N)=C/Nc1ccsc1C(=O)OC	inactive: 33.9%	–
C=C1C(=O)C23CCC4C(C)(C(=O)OC)CCCC4(C)C2CCC1(O)C3 (stereo not given)	–	active: 18.4 µM

Given in markdown: part of the list above

| SMILES | activity change, negative = cytotoxicity | Potency |
| --- | --- | --- |
| Nc1ccc(C(=O)NCC2(c3ccccc3)CCCC2)cc1 | – | inconclusive: 13 µM [cytotoxic, partial curve, poor fit] |
| COc1ccc(C(=O)C(C)OC(=O)c2cccc(S(=O)(=O)Nc3c(C)n(C)n(-c4ccccc4)c3=O)c2)cc1 (stereo not given) | inactive: 0% | – |
| Cn1ncc(N=Cc2ccccc2[N+](=O)[O-])c1C(N)=O | inconclusive: 31.7% | – |
| O=C(NNC(=S)NCc1ccccc1)c1cccnc1 | – | inconclusive: 0.461 µM [rising, full curve] |
| Cc1cccnc1Nc1nc(-c2ccccn2)cs1 | – | active: 4.11 µM |
| O=C(O)C1C2C=CC(C2)C1C(=O)NCCCN1CCCC1=O (stereo not given) | – | inconclusive: 29.1 µM [rising, single point] |
| CCOC(=O)N1CCC(NC(=O)c2ccc3c(c2)N(Cc2ccc(F)cc2)C(=O)c2ccccc2S3=O)CC1 (stereo not given) | – | inconclusive: 25.9 µM [cytotoxic, single point] |
| Cc1c(C(=O)N2CCCCC2)c(S(=O)(=O)N2CCN(c3ccc(F)cc3)CC2)c(C)n1C | inactive: -21.8% | – |
| CC(=O)C1=C(O)C(=O)N(c2ccc(O)cc2)C1c1ccccc1 (stereo not given) | – | inconclusive: 13 µM [rising, partial curve, poor fit] |
| Cc1c(C)n(C)c2ccc(C(=O)NCCCN3CCN(c4ccccc4F)CC3)cc12 | inactive: 3.04% | – |
| CCCCNC(=O)C[C@@H]1C[C@@]2(C(=O)OCC)CCCC=C2N(Cc2ccco2)C1=O | – | inconclusive: 16.4 µM [cytotoxic, partial curve] |
| Cc1ccc(CCNC(=O)C(C)n2nc(C)c3c(C)n(-c4ccc(C)cc4)nc3c2=O)cc1 (stereo not given) | – | inconclusive: 23.1 µM [cytotoxic, single point] |

Following part

SMILES	activity change, negative = cytotoxicity	Potency
Cc1ccc(C(=O)c2coc3ccc(O)c(CN(C)C)c23)cc1	inactive: 6.06%	–
Cc1cc(/C=C2\SC(=S)N(Cc3ccco3)C2=O)c(C)n1-c1ccccc1	inactive: -5.09%	–
CCN1CCN(c2nc3c(c(=O)n(C)c(=O)n3C)n2CCSc2nccc(C)n2)CC1	–	inconclusive: 9.2 µM [cytotoxic, partial curve, poor fit]
CC(=O)c1ccc(NC(=O)COc2ccccc2-c2nc(C(C)C)no2)cc1	inactive: -10%	–
COCC(C)NC(=O)C1CC(=O)N(CCc2ccc(F)cc2)C1 (stereo not given)	inactive: 6.61%	–
S=C(N/N=C1\C2CN3CCN(C2)CC1(c1ccccc1)C3)Nc1ccccc1	inactive: -17.2%	–
CSc1ccccc1NC(=O)Nc1cccc(Cl)c1	–	active: 16.4 µM
Cc1cccc(-c2nc(C#N)c(NC3CCCCC3)o2)c1	–	inconclusive: 16.4 µM [cytotoxic, single point]
COc1ccc(S(=O)(=O)N2CCN(c3nc(-c4cccs4)nc4ccccc34)CC2)cc1	–	inconclusive: 0.0058 µM [rising, full curve, poor fit]
N#C/C(=C\c1ccc(N2CCCCC2)o1)C(N)=O	–	inconclusive: 4.61 µM [cytotoxic, partial curve, poor fit]
CCCN(CCC)C(=O)C1CCN(c2ccc(S(=O)(=O)N3CCOCC3)cc2[N+](=O)[O-])CC1	–	inconclusive: 6.51 µM [cytotoxic, partial curve]
COc1ccc(C)cc1Nc1c2c(nc3ccccc13)CCC2	–	active: 2.91 µM
Cc1ccc(C)c(NC(=S)NNC(=O)c2sccc2C)c1	–	inconclusive: 16.4 µM [cytotoxic, partial curve, poor fit]
O=C(CCS(=O)(=O)c1ccccc1)N1CCN(c2ccccc2)CC1	–	inconclusive: 25.9 µM [cytotoxic, single point]
O=C(c1ccc(Cl)cc1)N1CCC(c2nc(-c3cccs3)no2)CC1	–	inconclusive: 20.6 µM [cytotoxic, partial curve, poor fit]
CCc1nc2oc3ccccc3c(=O)c2c(=O)n1CCOC	inactive: 0.0072%	–
OCc1cn(-c2ccccc2)nc1-c1ccc2c(c1)OCCO2	–	inconclusive: 29.1 µM [cytotoxic, single point]
COc1ccccc1C1=NOC(COC(=O)c2ccc(Br)cc2)C1 (stereo not given)	–	inconclusive: 7.31 µM [rising, partial curve]
CCOC(=O)C1CCN(S(=O)(=O)c2cc(-c3cc(C)no3)ccc2OC)CC1	inactive: 0.675%	–
COCc1c(Br)c(C)nc(OCC(=O)N/N=C/c2ccc(C)o2)c1C#N	–	inconclusive: 29.1 µM [rising, single point]
CCc1cccc2c(C=C(C#N)C#N)cn(CC(=O)N3CCCCCC3)c12	–	inconclusive: 7.31 µM [cytotoxic, partial curve, poor fit]
Cc1c(CCO)c(=O)n(C)n1C(=O)c1ccc(Cl)cc1	inactive: -22%	–
OCCOCCOc1ccc(-c2nn[nH]n2)cc1	–	inconclusive: 5.8 µM [rising, full curve]
CCCCOCCCNc1ncnc2c1[nH]c1ccccc12	–	active: 1.64 µM

SMILES	activity change, negative = cytotoxicity	Potency
CC(=O)N1CCc2cc(S(=O)(=O)NCC(=O)NCc3ccc(F)cc3)ccc21	–	inconclusive: 25.9 µM [rising, single point]
CCCCN(CC)C(=O)CSc1cc(=O)n(C)c2ccccc12	–	inconclusive: 16.4 µM [cytotoxic, single point]
CCc1nnc(NS(=O)(=O)c2ccc(NC(=O)c3ccc(C#N)cc3)cc2)s1	inactive: -16.5%	–
COc1cccc(OCC(O)CN(CCO)Cc2ccccc2)c1 (stereo not given)	–	inconclusive: 16.4 µM [cytotoxic, partial curve]
CSc1ccccc1NC(=O)CN(C)CC(=O)Nc1ccccc1N1CCOCC1	–	inconclusive: 9.2 µM [cytotoxic, partial curve, poor fit]
Cc1ccc(OCC(=O)Nc2ccc3c(c2)C(=O)NC3=O)c(C)c1	–	inconclusive: 29.1 µM [rising, single point]
COc1ccc(-n2c(=O)cc(N3CCN(Cc4ccccc4)CC3)[nH]c2=O)cc1	–	inconclusive: 29.1 µM [rising, single point]
Cc1ccc(N(Cc2cc3ccccc3[nH]c2=O)C(=O)c2cccs2)cc1C	–	inconclusive: 1.64 µM [cytotoxic, full curve, poor fit]
CC1Sc2ccc(S(=O)(=O)N3CCC(C(=O)Nc4cccc(Cl)c4)CC3)cc2NC1=O (stereo not given)	inactive: -5.37%	–
O=C(NNC(=O)c1c(F)cccc1F)c1ccccc1-n1cccc1	inactive: 0%	–
COC(=O)c1c(C)oc2ccc(N(C(=O)Oc3ccccc3)S(=O)(=O)c3ccc(Cl)c([N+](=O)[O-])c3)cc12	–	inconclusive: 23.1 µM [cytotoxic, single point]
Cc1ccc2cc(CN(CC3CCCO3)C(=S)Nc3ccccc3)c(=O)[nH]c2c1C (stereo not given)	–	active: 2.31 µM
O=C(NC(c1ccc(F)cc1)c1cnccn1)C1CCN(CCOc2ccc(Cl)cc2Cl)CC1 (stereo not given)	inactive: -0.462%	–
COc1ccccc1-c1cnc(C(O)c2cccc(C)c2C)[nH]1 (stereo not given)	–	inconclusive: 20.6 µM [cytotoxic, single point]
CCN(Cc1cc(OC)c(OC)c(OC)c1)C(=S)Nc1cccc(SC)c1	–	inconclusive: 5.8 µM [cytotoxic, full curve, poor fit]
O=C(CSc1nc(-c2ccccc2)cc(C(F)(F)F)n1)NCc1ccco1	–	inconclusive: 18.4 µM [cytotoxic, partial curve]
O=C(O)CCNC(=O)/C(=C/C=C/c1ccccc1)NC(=O)c1ccccc1	inactive: -4.17%	–
Cc1cc(C)cc(OCc2cc(=O)n3c4c(sc3n2)CCCC4)c1	–	inconclusive: 29.1 µM [rising, single point]
CCC(C)NC(=O)Cc1ccc(NC(=O)N2CCCCc3ccccc32)cc1 (stereo not given)	inactive: -5.71%	–
COc1ccccc1-c1ccc(SCc2ccccc2)nn1	–	inconclusive: 23.1 µM [cytotoxic, partial curve, poor fit]
CCc1ccc(C(=O)Nc2ccc(C)c(NS(C)(=O)=O)c2)cc1	–	inconclusive: 20.6 µM [cytotoxic, partial curve, poor fit]
Cc1ccc(NC(=O)Cn2c(O)c(N=NS(=O)(=O)c3ccc(C)cc3)c3ccccc32)cc1	–	inconclusive: 16.4 µM [cytotoxic, partial curve]
